Assay results taken from patent US12195506B2, “Immunotherapy with A*01 restricted peptides and combination of peptides against cancers and related methods” (Immatics Biotechnologies GmbH, priority 2018, dated 2025).
For part of these data: Expression values are those of the mRNA of the gene that encodes the peptide; a gene is named only where it was looked up.

Experiments:
source genes (mRNA) = assay: Expression profiling of genes encoding the peptides (RNAseq, tumor versus normal tissues); set-up: species or system human; conditions: source gene of the peptide; for Gene Expression in tumor samples: Highly over-expressed (++): value = tumor type in which the gene is highly over-expressed compared to a panel of normal tissues; for Gene Expression in tumor samples: over-expressed (+): value = tumor type in which the gene is over-expressed compared to a panel of normal tissues
[1] = system: HLA molecules of primary tumors and normal tissue samples; assay: Identification and relative quantitation of HLA ligands by LC-MS (peptide presentation on tumor versus normal tissue); set-up: species or system human; conditions: cancer entities on which the peptide was found presented (HLA ligands, LC-MS); abbreviations as in title of Table 8

Substance | Gene Expression in tumor samples: Highly over-expressed (++) (source genes (mRNA)) | Gene Expression in tumor samples: over-expressed (+) (source genes (mRNA)) | Peptide Presentation on cancer entities [1]
178: peptide found in ROS1 (gene looked up) (TQRTSFQFY; listed as Homo sapiens) [compound 178] | NSCLCadeno | NSCLCother, NSCLCsquam | NSCLCadeno, NSCLCsquam, OC
179: peptide found in FERMT1 (gene looked up) (SSTDFTFASW; listed as Homo sapiens) [compound 179] | CRC |  | HNSCC, OC, OSCAR
181: peptide found in HTR7 (gene looked up) (SVTDLIGGKW; listed as Homo sapiens) [compound 181] | HNSCC, UBC | AML, NSCLCsquam, OSCAR | OSCAR
182: peptide found in ADAMTS12 (gene looked up) (TQPELSSRY; listed as Homo sapiens) [compound 182] | CCC, GBC |  | NSCLCadeno
184: peptide found in EGFR (gene looked up) (KTIQEVAGY; listed as Homo sapiens) [compound 184] | GBM |  | GBM, HNSCC
186: peptide found in CTLA4 (gene looked up) (AVSSGLFFY; listed as Homo sapiens) [compound 186] | CLL | NHL | BRCA
187: peptide found in PTPRZ1 (gene looked up) (TQKSVQVLAY; listed as Homo sapiens) [compound 187] | GBM |  | GBM
192: peptide found in SLC7A11 (gene looked up) (LAFYYGMY; listed as Homo sapiens) [compound 192] | NSCLCsquam | GBM, HNSCC, NSCLCadeno, OSCAR | GC, MEL, NHL, NSCLCsquam, OC, PRCA, RCC, UEC
194: peptide found in ROS1 (gene looked up) (CYTADNEMGY; listed as Homo sapiens) [compound 194] | NSCLCadeno | NSCLCother, NSCLCsquam | HCC
195: peptide found in ROS1 (gene looked up) (YTADNEMGYY; listed as Homo sapiens) [compound 195] | NSCLCadeno | NSCLCother, NSCLCsquam | NSCLCadeno, NSCLCother
197: peptide found in PDE11A (gene looked up) (NDEIDKLTGY; listed as Homo sapiens) [compound 197] | PRCA |  | MEL
198: peptide found in PTPRZ1 (gene looked up) (KLTDYINANY; listed as Homo sapiens) [compound 198] | GBM |  | GBM
199: peptide found in UGT1A3 (gene looked up) (LCAAVLAKY; listed as Homo sapiens) [compound 199] | HCC |  | MEL
200: peptide found in FERMT1 (gene looked up) (SLPEFGLTY; listed as Homo sapiens) [compound 200] | CRC |  | GBM, RCC
201: peptide found in FERMT1 (gene looked up) (SLPEFGLTYY; listed as Homo sapiens) [compound 201] | CRC |  | OSCAR
